Assay results as given in patent publication US7420033B2, “Composition of lactoferrin related peptides and uses thereof” (Agennix, Inc., priority 2004, dated 2008).
Part of at least one peptide drawing is inferred or uncertain, most often the ends. Where no end group is shown, it is not given here.

Experiments:
hind paw edema = experiment: Carrageenan mouse paw edema model of inflammation; type: in vivo, ICR derived mice; settings: PO once daily × 5
Protocol: Test substance LPF-35 at 5 mg/kg and reference agent Aspirin at 100 mg/kg were administered orally once daily for 5 consecutive days to groups of 8 ICR (4 male and 4 female) derived mice weighing 22±2 gms. One hour after 5th dose, right hind paw was injected with carrageenan (0.05 ml of 1% suspension intraplantar). The hind paw edema was measured 4 hours later. Convention: reduction of hind paw edema by 30 percent or more indicates significant acute anti-inflammatory activity. Each animal was fasted overnight before Carrageenan challenge.

[1] = system: human articular cartilage; experiment: HA6-induced matrix depletion of articular cartilage slices (osteoarthritis); type: cell-based; settings: 14 days
wound = experiment: Mouse wound healing, punch wound; type: in vivo, ICR male mice; settings: topical 0.02 ml per wound once daily, 11 days; FIG. 7
Ascaris suum antigen = experiment: Sheep model of allergic asthma; type: in vivo; settings: lung resistance and carbachol response, FIG. 5, FIG. 6
Protocol: Peptides LPF-32 and LPF-35 were both tested in an established sheep model of allergic asthma. […] Allergic sheep previously characterized as dual responders (displaying early and late phases of bronchoconstriction), were administered peptide followed by inhalation challenge with Ascaris suum antigen.
Baseline dose response curves to aerosolized carbachol were obtained in all sheep 1-3 days before the start of dosing. Sheep were dosed with peptide or placebo by nebulization or oral gavage in the inhaled and oral experiments respectively. The sensitized sheep were then challenged with Ascaris suum antigen to produce early and late airway responses, as measured by mean lung resistance (pulmonary flow resistance, RL). Mean lung resistance was measured using tracheal and pleural pressure catheters connected to a differential pressure transducer. […]
To assess airway responsiveness, cumulative dose response curves to carbachol were obtained, as measured by specific lung resistance, or SRL (SRL=RL * thoracic gas volume). […] Airway hypersensitivity (AH) was determined by calculating the cumulative carbachol dose that increased SRL by 400% over the post-saline value by interpolation from the dose response curve. […]

[2] = system: E. coli Lipopolysaccharide (LPS); experiment: Lipopolysaccharide-induced septic shock in mice; type: in vivo, C57BL/6J mice; settings: 3-day period
acetic acid writhing = experiment: Acetic acid writhing model of pain in rats; type: in vivo; settings: single oral dose 60 minutes prior to the test
heart allograft = experiment: Heart allograft survival model in rats; type: in vivo, rats (Wistar Furh recipients, Baffalo donors); settings: LPF-35 (5 mg/kg oral) daily for 14 days in combination with 0.8 mg/kg FK506; n=6
Protocol: The activity of LPF-35 in combination with FK506 was compared with FK506 alone in a heart allograft survival model in rats. Wistar Furh (WF; RT1) recipients of heart allograft from Baffalo donors (BUF; RT1b) were administered oral LPF-35 (5 mg/kg) plus FK506 (0.8 mg/kg), FK506 alone or placebo. The results are presented as a mean±standard deviation (MST±SD). Significance between groups was calculated using Student T-test with p<0.05 considered as significant. In group # 1 control WF recipients of BUF heart allografts (n=5) were untreated and heart allografts were rejected in an acute fashion within 6.4±0.5 days. In group # 2 WF recipients of BUF heart allografts (n=10) were treated daily once (days 0 to +14) with 0.8 mg/kg FK506 delivered by oral gavage. This protocol was effective in prolonging the survival of heart allografts to a MST of 22.3±6.7 days (p=0.0002). […] In group # 3 WF recipients of BUF heart allografts (n=6) were treated daily once (days 0 to +14) with 0.8 mg/kg FK506 delivered by oral gavage in combination with LPF-35 daily for 14 days. This protocol was effective in prolonging the survival of heart allografts to a MST of 49.5±28 days (p=0.0077). […] An effect of reducing organ transplant rejection is indicative of beneficial effects in GVHD.

[3] = system: E. coli Lipopolysaccharide (LPS); experiment: Mouse model of septic shock, second experiment versus rhLF; type: in vivo, C57BL/6J mice; settings: highest effective dose, oral at 1, 6 and 12 hours after LPS; FIG. 3
dry eye disease = experiment: Rabbit model of dry eye disease; type: in vivo, Rabbits; settings: 50 uL in the eyes, eyes held open 2 hr; FIG. 4
[4] = system: tail-flick response to heat; experiment: Tail flick model of pain in rats; type: in vivo; settings: single oral dose
[5] = system: serum glucose and insulin; experiment: Mouse model of diabetes, serum glucose and insulin; type: in vivo, C57BL mice; settings: oral once daily for 3 days, 90 minutes after the last dose; FIG. 8

Sequence: RRRRRRSVQWQAVSQPIATIQFQWQRNMRKRRR [LPF-35]
- Paw Volume LP (hind paw edema; LP, average n=8): 12.63 ×0.01 ml
- Paw Volume Diff. (hind paw edema; RP minus LP): 6.13 ×0.01 ml
- Paw Volume RP (hind paw edema; right hind paw injected with carrageenan, 4 hours later, average n=8): 18.75 ×0.01 ml
- synthesis of cartilage proteoglycan ([1]; 0.1 mg/mL to 1.0 mg/mL): increased synthesis
- HA6-induced depletion of cell-associated matrices, hyaluronan and proteoglycan ([1]; co-treatment with HA6 250 μg/mL): inhibits
- rate and incidence of wound healing (wound): effective in accelerating
- late phase inflammation and airway hyperresponsiveness (Ascaris suum antigen): substantially inhibit
- % Survival ([2]; 5 μg × 3, p.o. at 1, 6 and 12 hours after LPS): 25%
- % Survival ([2]; 25 μg × 3, p.o. at 1, 6 and 12 hours after LPS): 25%
- % Survival ([2]; 100 μg × 3, p.o. at 1, 6 and 12 hours after LPS): 50%
- reduction of number of writhings compared to control (acetic acid writhing): 18%
- survival of heart allografts, MST ± SD (heart allograft): 49.5±28 days
- reduction in mortality compared with rhLF [3]: more effective than a positive control, recombinant human lactoferrin (rhLF)
- eye damage (corneal methylene blue stain, Abs 660 nm) (dry eye disease): effective
- increase of tail-flick response time to heat compared to control [4]: 16%
- serum glucose change relative to placebo [5]: significant declines
- serum insulin change relative to placebo [5]: significant declines
